Binding data for four molecules are collected here from PMC12855868, “Deep Mutational Scanning of FDX1 Identifies Key Structural Determinants of Lipoylation and Cuproptosis” (Nature Communications, 2025).

The target in test [1] is T1, C-terminally Strep-Tag II (STII)-tagged FDXR (human) (UniProt P22570).
T1 sequence: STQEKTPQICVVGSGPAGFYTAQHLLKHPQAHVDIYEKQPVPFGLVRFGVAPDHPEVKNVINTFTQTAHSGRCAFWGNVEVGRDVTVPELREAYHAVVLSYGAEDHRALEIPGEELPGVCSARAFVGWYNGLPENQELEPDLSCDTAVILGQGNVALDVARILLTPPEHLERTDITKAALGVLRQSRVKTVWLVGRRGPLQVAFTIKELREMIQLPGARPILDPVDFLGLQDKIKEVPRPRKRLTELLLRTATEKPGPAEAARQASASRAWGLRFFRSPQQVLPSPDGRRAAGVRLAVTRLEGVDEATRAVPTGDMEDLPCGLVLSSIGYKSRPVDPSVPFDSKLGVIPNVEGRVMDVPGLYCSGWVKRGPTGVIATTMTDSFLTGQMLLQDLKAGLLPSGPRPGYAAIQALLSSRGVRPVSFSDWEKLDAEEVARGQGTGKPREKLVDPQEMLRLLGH
The test can be described thus: co-IP; Strep-Tactin magnetic beads on lysates (PBS, 1% IGEPAL, protease and phosphatase inhibitors) of HEK293T stably expressing C-terminally STII-tagged DLD or FDXR and transiently transfected with FDX1 constructs; 30 min in the cold; immunoblot. A general note: In western blotting, separated proteins are transferred to a membrane and probed.

The target in test [2] is T2, DLD (aa 36-509), purified recombinant (human) (UniProt P09622).
T2 sequence: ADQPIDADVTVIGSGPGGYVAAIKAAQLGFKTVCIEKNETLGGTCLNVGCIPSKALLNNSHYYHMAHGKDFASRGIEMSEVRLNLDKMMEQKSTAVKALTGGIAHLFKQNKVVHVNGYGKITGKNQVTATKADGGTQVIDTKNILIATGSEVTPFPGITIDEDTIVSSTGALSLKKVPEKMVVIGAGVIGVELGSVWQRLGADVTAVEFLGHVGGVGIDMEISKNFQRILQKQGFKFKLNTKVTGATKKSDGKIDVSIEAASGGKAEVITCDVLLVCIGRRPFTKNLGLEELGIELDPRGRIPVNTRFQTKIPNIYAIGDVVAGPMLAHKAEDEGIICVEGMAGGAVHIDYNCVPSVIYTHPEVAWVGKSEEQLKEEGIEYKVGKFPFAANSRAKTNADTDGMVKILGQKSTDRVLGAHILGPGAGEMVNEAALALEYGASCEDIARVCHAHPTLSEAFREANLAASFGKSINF
Description: Temperature-Related Intensity Change (TRIC) fluorescence; FDX1 with DLD in vitro; which partner was labelled and the concentrations are not told; both purified.

Residue numbers refer to the chain shown, from its start. Names and notes keep the numbering of the source. Results are given in words; binding and its absence hold for the method and conditions named. For some of these results: In cells and extracts the contact can be indirect. Some binding calls cover weakened binding; strength is not graded here. Where a sequence is shown, tags or fusion partners need not be part of it.

B1: WT FDX1, full length, pMT025 (no tag), expressed in HEK293T (protein, UniProt P10109 61-184)
chain: SSSEDKITVHFINRDGETLTTKGKVGDSLLDVVVENNLDIDGFGACEGTLACSTCHLIFEDHIYEKLDAITDEENDMLDLAYGLTDRSRLGCQICLTKSMDNMTVRVPETVADARQSIDVGKTS
As to B1, the binding entry in test [1] is “binds”.

B2: FDX1 WT (aa 61-184), N-terminal hexa-histidine tag (domain or fragment, human, UniProt P10109 61-184, looked up)
chain: B1 chain
notes: ferredoxin 1 (FDX1), human, residues 61-184, lacking the mitochondrial transit peptide; pET28a; Carries a reconstituted Fe-S cluster; In the FDX1-LIAS TRIC assay it was labelled on the His tag with the Red-Tris-NTA 2nd generation dye; in the FDXR assay it was the unlabelled ligand; also called ferredoxin 1; source: E. coli BL21 (DE3) carrying pDB1282, purified, iron-sulfur cluster reconstituted; …
As to B2, in test [2], the binding result is given as “no binding”.

B3: FDX1 D139R (aa 61-184), N-terminal hexa-histidine tag (domain or fragment, human, UniProt P10109 61-184, looked up)
chain: B1 chain with D79R
notes: ferredoxin 1 (FDX1), human, residues 61-184, lacking the mitochondrial transit peptide; pET28a; Carries a reconstituted Fe-S cluster; Labelled with Red-Tris-NTA dye in the LIAS assay only; source: E. coli BL21 (DE3) carrying pDB1282, purified, iron-sulfur cluster reconstituted; not shown: His6, N-terminal, kept
As to B3, the binding result in test [1] was “binds”.

B4: FDX1 D136R (aa 61-184), N-terminal hexa-histidine tag (domain or fragment, human, UniProt P10109 61-184, looked up)
chain: B1 chain with D76R
notes: as for B3
In the case of B4, in test [1], the binding result is on record as “binds”.
